Experimental data as given in patent US20230287095A1.
Substitutions are numbered along the chain they refer to. No constants are given. Whether binding was seen depends on the method and setting. Some binding calls cover weakened binding; strength is not graded here.

The chains behind the UniProt entries cited, without tags or fusion partners.
UniProt Q12904: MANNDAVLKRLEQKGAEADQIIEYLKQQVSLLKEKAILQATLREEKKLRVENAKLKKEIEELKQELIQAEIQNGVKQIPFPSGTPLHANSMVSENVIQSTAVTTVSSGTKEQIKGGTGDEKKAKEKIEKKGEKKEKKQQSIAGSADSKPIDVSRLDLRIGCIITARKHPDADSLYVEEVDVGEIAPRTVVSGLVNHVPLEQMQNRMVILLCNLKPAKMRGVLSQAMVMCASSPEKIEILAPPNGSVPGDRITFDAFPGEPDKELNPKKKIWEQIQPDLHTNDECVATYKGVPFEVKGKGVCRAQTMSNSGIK

B1: Chimeric Parental (antibody, V domains shown)
VH: AVHLVESGGGFVQPTESLKISCAASGFTFSDAAMYWVRQAPGKGLEWVARIRTKPNNYATYYADSVKGRFTISRDDSKSMVYLQMDNLKTEDTAMYYCTSWSYDFDYWGQGVMVTVSS
VL: DIVMTQGALPNPVPSGESASITCQSSKSLLHSSGKTYLNWYLQRPGQSPHLLIYWMSTRASGVSDRLSGSGSGTDFTLKISSVEAEDVGVYYCQQFLEYPLTFGSGTKLEIK
B2: Humanized HC4 + LC1 (antibody, human IgG1, kappa, V domains shown)
VH: EVQLVESGGGLVQPGGSLKLSCAASGFTFSDAAIYWVRQASGKGLEWVARIRTKPNNYATYYAASVKGRFTISRDDSNSTAYLQMNSLKTEDTAVYYCTSWSYDFDYWGQGTLVTVSS
VL: DIVMTQSPLSLPVTPGEPASISCRSSKSLLHSSGKTYLNWYLQKPGQSPQLLIYWMSNRASGVPDRFSGSGSGTDFTLKISRVEAEDVGVYYCQQFLEYPLTFGQGTKLEIKR
B3: Humanized HC1 + LC1 (antibody, human IgG1, kappa, V domains shown)
VH: B2 VH with I34M, A49G, N78K, S79N
VL: B2 VL
B4: Humanized HC5 + LC1 (antibody, human IgG1, kappa, V domains shown)
VH: B2 VH with E1A, I34M
VL: B2 VL

target: human pro-EMAPII (human) (UniProt Q12904); assay: ELISA, plate coated with human pro-EMAPII

Binder	binding
B1	binds
B2	binds
B3	binds
B4	binds
